Source: PMC7475243
Results are given in words; binding and its absence hold for the method and conditions named. Binding calls can cover weak binding; strength is not graded here. Where a sequence is shown, tags or fusion partners need not be part of it.

Target: T1, MBP-LecRK5-KD (the OsLecRK5 protein kinase domain tagged with MBP) (rice (Oryza sativa))
T1 sequence: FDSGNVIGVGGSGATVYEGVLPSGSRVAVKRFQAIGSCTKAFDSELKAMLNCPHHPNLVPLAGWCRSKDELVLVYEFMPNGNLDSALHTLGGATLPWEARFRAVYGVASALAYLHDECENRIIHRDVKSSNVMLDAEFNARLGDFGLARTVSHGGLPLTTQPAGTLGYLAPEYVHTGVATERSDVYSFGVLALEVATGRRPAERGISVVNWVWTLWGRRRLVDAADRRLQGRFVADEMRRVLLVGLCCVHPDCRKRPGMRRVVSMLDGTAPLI
Experiment: pull-down; amylose resin containing 1 ug MBP-LecRK5-KD or MBP incubated with 1 ug His or His-UGP1 in PBS, rotated at 4 °C for 8 h; western blot with anti-MBP or anti-His; both purified

- binding: binds
Substance: His-UGP1 (recombinant full-length rice UGP1) (enzyme)
